Results reported in paper PMC9814191.

Target: T1, Fc-tagged purified human recombinant TLT-1 (TREM-like transcript 1) (human) (UniProt Q86YW5)
T1 sequence: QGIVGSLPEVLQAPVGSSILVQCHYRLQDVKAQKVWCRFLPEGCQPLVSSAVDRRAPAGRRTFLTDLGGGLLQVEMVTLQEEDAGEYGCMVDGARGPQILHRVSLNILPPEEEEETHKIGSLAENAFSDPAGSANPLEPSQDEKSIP
Test: co-IP; intact Jurkat cells incubated 15 min with Fc-tagged purified TLT-1 or IgG as control; lysate in mild IP lysis buffer (not boiled); 1 mg total protein with Protein A/G Dynabeads; immunoblot for individual targets with non-IP lysate as input; only the target purified

binding: no binding
Substance: TNFR (human (endogenous in Jurkat)) (receptor)

Results are given in words; binding and its absence hold for the method and conditions named. In cells and extracts the contact can be indirect. Sequences can lack the tags named with a protein.
